The exact form of at least one protein or probe is not confirmed. Where a protein sequence is shown, tags need not be part of it.
Legend:
[1] = system: T1, TERT (full-length telomerase catalytic subunit) (Tribolium castaneum); experiment: binding assay; settings: chimera: RNA rCrUrGrArCrCrU, remainder DNA, stated same binding affinity and RT activity as the 21mer, no value given, purified recombinant protein, protein details: N-terminal His6 cleaved with TEV
T1 sequence: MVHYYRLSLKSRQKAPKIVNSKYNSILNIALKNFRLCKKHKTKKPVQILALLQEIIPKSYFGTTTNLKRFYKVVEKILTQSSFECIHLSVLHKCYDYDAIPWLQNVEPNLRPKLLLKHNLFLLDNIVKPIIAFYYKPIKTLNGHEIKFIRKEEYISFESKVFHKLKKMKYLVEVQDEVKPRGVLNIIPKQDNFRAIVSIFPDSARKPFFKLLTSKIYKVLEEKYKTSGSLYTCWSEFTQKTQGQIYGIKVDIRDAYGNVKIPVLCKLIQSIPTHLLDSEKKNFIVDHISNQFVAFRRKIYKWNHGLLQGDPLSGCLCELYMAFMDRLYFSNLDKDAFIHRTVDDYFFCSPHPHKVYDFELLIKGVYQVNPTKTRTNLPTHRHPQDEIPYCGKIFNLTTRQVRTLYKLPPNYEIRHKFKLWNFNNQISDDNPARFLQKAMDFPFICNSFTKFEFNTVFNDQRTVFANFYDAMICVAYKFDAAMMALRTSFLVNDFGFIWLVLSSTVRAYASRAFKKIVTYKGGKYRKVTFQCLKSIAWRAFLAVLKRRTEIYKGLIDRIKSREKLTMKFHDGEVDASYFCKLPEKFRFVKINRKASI

[2] = system: T1, TERT (full-length telomerase catalytic subunit) (Tribolium castaneum); experiment: structure; settings: chimera: RNA rCrUrGrArCrCrU template, linker u:rGrArC RNA, remainder DNA; 2.7 A co-crystal structure with Mg2+ and dNTPaS; 3' end extended by three nucleotides in the drop; same affinity stated for all three hairpins; purified recombinant protein; protein details: N-terminal His6 cleaved with TEV

Sequence: CUGACCUTTCGAGGT [15mer RNA-DNA hairpin]
- binding result ([1]; linker u): binds

Sequence: CUGACCUGTTCGCAGGT [17mer RNA-DNA hairpin]
- binding result ([1]; linker u:rG, text calls it 18mer): binds

Sequence: CUGACCUGACTTCGGTCAGGT [21mer RNA-DNA hairpin (Chim21m)]
- binding result [2]: binds
